Among the data in patent US9820990B2, “Methods of treating disorders associated with protein aggregation” (University of Pittsburgh—Of the Commonwealth System of …, priority 2009, dated 2017) are Overall rank-order and Rank-score values, retold here.

This experiment has as its system sGFP::ATZ. Kind of experiment: LOPAC library high-content primary screen for sGFP::ATZ accumulation in transgenic animals. It counts as in vivo, C. elegans.

With `Br.CN1[C@@H]2CC[C@H]1C[C@@H](OC(=O)C(O)c1ccccc1)C2` (mixture of isomers) [DL-homatropine hydrobromide], the Overall rank-order (among compounds that decreased ATZ accumulation, based on relative rank-scores) is 6. Besides, the Rank-score (average of compound rankings by ascending B-score from two independent screens, 50 μM, 24 h, <110 decreased, >1225 increased sGFP::ATZ inclusions) was determined as 34.5.
